Reference: the supplement of paper PMC12819154, “High-throughput peptide-centric local stability assay extends protein–ligand identification to membrane proteins, tissues and bacteria” (Nature Structural & Molecular Biology, 2025)
The list shows a part of the results. Small differences around the control level are noise.

Sequences of proteins named here, by UniProt entry; tags and fusion partners are left off. A change or cut given only in a name is not applied to a line headed by its entry.
UniProt Q5VV42: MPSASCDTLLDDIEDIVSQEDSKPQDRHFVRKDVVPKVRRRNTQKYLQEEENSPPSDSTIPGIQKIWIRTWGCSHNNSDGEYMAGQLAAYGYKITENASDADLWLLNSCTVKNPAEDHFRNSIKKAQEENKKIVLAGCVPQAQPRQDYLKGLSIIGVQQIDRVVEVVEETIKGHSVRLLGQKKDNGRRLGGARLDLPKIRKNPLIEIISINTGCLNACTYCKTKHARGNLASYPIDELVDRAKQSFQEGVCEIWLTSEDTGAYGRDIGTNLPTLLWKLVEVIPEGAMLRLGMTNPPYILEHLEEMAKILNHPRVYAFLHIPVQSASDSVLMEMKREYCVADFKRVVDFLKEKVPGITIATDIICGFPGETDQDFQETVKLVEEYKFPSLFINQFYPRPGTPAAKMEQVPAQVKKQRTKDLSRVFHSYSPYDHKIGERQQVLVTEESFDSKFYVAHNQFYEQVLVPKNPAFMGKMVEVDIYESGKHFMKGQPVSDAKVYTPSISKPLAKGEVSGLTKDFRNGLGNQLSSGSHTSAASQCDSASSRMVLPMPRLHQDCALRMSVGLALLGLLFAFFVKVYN
UniProt Q5JNZ3: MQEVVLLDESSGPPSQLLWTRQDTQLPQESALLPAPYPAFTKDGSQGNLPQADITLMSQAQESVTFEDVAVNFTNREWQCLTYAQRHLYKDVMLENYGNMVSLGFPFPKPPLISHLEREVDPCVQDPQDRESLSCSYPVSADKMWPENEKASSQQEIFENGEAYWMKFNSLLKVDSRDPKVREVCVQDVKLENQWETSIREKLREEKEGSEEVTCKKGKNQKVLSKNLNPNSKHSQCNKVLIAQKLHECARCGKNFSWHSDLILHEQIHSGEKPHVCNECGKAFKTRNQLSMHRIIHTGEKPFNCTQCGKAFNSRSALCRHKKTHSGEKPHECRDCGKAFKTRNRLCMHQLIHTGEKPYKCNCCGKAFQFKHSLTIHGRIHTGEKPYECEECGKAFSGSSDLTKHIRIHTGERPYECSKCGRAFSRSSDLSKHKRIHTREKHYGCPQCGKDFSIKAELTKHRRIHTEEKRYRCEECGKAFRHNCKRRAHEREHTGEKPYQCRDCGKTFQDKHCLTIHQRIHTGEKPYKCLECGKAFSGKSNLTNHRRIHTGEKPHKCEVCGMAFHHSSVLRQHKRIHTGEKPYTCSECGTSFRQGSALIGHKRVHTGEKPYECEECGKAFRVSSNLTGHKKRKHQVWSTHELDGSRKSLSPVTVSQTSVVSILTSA
UniProt Q5M9Q1: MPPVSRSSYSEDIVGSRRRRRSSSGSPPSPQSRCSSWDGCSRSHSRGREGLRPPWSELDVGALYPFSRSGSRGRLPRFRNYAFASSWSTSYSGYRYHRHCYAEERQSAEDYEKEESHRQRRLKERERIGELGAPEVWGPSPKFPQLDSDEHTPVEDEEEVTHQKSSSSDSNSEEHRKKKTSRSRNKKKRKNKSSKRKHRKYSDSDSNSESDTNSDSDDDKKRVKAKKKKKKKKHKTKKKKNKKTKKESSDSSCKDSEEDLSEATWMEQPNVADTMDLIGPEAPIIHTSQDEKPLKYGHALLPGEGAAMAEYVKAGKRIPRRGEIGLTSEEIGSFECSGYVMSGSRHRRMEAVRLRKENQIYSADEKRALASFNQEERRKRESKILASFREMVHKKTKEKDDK
UniProt Q562F6: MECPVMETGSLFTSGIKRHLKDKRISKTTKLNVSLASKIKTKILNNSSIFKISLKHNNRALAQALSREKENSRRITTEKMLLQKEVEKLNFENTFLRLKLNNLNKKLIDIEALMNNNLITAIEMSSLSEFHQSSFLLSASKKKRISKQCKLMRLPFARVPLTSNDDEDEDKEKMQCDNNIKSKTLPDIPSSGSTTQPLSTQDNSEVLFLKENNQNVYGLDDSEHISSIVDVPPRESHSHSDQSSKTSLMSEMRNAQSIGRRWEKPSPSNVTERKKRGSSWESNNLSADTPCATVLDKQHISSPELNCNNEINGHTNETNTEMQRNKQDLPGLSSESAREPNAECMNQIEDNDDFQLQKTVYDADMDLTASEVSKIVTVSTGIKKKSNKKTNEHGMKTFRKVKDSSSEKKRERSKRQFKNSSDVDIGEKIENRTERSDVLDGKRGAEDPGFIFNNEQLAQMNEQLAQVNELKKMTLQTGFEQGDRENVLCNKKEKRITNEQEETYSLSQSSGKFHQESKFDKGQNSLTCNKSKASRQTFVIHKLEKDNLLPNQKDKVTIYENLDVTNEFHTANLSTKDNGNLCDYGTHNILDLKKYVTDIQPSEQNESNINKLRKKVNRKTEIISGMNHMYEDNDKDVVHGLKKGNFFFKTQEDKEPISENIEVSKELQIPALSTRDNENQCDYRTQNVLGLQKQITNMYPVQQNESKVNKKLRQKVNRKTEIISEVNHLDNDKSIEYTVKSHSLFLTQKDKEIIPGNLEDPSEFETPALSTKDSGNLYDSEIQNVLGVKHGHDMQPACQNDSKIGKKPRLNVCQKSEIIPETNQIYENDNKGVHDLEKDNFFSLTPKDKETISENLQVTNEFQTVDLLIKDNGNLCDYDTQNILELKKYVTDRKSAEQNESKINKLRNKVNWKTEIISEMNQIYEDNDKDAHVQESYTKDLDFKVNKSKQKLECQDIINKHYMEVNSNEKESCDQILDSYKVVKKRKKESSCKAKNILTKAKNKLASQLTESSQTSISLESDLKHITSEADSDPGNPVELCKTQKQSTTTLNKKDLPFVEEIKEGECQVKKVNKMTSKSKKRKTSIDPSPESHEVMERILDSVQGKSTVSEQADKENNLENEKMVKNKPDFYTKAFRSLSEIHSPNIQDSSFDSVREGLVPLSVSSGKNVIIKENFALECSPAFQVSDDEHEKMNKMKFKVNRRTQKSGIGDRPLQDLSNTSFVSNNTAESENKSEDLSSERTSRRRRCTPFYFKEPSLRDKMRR
UniProt Q4G0S7: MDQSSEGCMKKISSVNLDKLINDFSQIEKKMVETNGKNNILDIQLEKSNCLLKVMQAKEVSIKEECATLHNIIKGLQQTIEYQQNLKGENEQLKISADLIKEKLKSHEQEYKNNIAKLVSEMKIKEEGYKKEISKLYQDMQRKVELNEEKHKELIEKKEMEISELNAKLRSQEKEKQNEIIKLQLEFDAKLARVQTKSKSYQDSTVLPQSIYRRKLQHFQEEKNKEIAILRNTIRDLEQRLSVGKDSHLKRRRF
UniProt Q5VYS8: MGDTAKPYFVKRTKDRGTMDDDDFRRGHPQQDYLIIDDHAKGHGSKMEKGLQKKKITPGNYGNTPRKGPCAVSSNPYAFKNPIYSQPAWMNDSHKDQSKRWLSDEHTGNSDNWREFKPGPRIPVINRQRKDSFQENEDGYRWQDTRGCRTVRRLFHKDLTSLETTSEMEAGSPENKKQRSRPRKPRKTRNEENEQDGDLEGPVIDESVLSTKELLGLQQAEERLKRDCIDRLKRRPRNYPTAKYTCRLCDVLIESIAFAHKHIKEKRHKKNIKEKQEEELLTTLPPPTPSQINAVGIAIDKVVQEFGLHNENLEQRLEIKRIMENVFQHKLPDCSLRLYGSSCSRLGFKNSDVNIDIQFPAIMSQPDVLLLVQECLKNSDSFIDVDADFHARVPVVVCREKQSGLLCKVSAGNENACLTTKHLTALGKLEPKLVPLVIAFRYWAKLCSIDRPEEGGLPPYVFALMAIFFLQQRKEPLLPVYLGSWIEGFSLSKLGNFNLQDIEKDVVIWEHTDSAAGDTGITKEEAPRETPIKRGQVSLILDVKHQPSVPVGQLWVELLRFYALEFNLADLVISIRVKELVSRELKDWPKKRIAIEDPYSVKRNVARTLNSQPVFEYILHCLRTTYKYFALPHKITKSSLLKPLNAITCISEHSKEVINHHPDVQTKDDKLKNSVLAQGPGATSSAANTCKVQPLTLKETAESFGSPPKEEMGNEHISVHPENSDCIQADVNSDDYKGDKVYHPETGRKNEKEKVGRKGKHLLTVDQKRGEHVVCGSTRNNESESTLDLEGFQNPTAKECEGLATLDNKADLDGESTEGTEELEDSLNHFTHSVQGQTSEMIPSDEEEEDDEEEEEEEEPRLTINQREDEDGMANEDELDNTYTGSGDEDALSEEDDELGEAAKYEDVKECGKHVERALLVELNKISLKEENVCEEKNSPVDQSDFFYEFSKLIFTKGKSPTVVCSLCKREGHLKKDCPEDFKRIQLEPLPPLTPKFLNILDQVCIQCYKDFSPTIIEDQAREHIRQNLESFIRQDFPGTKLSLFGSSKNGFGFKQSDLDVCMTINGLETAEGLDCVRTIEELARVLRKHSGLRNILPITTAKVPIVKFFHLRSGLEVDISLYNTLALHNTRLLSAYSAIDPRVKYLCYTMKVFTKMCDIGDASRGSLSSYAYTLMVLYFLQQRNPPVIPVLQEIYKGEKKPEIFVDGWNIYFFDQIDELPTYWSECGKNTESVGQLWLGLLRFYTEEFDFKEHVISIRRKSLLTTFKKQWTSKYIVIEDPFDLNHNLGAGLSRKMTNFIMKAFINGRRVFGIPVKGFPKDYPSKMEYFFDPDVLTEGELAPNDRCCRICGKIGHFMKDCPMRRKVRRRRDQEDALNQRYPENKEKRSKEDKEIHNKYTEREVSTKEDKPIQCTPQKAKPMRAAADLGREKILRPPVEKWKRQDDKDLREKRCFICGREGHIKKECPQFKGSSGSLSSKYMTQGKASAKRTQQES
UniProt Q5T447: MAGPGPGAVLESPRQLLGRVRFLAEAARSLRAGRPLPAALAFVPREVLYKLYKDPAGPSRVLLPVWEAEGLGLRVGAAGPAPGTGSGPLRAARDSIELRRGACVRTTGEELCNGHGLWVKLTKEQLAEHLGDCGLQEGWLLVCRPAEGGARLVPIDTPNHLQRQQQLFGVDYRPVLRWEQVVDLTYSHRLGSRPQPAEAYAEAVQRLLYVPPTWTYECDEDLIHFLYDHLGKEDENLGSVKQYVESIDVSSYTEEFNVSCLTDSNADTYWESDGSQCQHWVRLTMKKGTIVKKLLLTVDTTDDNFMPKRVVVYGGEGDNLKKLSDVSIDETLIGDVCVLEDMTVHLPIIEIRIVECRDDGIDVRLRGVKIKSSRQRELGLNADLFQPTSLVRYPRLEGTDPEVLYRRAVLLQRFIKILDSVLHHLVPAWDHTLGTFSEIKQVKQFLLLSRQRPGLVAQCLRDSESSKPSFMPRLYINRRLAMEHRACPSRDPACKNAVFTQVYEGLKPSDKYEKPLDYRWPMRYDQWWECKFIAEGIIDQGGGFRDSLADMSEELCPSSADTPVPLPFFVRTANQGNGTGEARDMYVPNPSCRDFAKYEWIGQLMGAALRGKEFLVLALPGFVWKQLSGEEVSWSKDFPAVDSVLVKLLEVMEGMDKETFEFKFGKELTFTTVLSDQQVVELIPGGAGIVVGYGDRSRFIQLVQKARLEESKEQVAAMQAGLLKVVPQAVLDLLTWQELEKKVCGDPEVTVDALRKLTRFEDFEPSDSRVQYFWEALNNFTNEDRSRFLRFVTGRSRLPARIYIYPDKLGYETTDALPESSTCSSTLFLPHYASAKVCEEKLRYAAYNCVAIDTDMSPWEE
UniProt Q58A45: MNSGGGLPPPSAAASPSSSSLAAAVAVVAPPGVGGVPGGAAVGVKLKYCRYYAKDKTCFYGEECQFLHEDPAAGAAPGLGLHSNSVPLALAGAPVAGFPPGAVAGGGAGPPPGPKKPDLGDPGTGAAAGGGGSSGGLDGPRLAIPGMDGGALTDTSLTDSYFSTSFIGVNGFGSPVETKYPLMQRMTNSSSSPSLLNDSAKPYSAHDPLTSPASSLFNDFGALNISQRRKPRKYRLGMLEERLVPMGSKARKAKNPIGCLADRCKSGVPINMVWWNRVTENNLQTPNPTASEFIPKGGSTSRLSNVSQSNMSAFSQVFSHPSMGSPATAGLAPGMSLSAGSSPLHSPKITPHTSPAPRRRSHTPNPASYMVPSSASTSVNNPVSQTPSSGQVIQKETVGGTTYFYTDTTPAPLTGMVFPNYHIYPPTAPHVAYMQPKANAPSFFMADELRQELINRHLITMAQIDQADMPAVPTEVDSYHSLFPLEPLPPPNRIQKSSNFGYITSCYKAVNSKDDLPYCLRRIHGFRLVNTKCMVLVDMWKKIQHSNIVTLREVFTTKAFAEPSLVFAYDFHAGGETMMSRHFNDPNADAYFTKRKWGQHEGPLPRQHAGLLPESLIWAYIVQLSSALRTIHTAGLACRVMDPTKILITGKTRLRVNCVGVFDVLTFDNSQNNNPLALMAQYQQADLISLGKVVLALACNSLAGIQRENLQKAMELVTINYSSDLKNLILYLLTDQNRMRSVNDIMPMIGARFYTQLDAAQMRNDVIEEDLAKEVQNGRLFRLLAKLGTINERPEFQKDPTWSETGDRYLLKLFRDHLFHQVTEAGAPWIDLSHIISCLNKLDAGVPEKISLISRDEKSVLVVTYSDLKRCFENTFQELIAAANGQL

Compound: CN[C@@H]1C[C@H]2O[C@@](C)([C@@H]1OC)n1c3ccccc3c3c4c(c5c6ccccc6n2c5c31)C(=O)NC4 [staurosporine]
Assay: log2 fold change of tryptic peptide abundance, ligand vs vehicle (limited proteolysis) (log2 ratio); higher = more trypsin-susceptible (destabilized)
Conditions: ligand concentration: 20 uM; sample: K562 cleared lysate; digestion: 4 min, 22 C (HT-PELSA RT4min, Orbitrap Astral)

| Target | log2 fold change |
| --- | --- |
| ZNF318 (peptide sequence: IYELAVWDENKK, peptide start residue: 1953) (UniProt Q5VUA4) | -0.437 |
| PARP10 (peptide sequence: WLEEEAALQLALHR, peptide start residue: 649) (UniProt Q53GL7) | 0.127 |
| CDKAL1 (peptide sequence: VVEVVEETIK, peptide start residue: 163) (UniProt Q5VV42) | 0.249 |
| ODF2 (peptide sequence: KHLQQEK, peptide start residue: 198) (UniProt Q5BJF6) | 0.0965 |
| UniProt Q5TEC6 (peptide sequence: STELLIRKLPFQR, peptide start residue: 58) | 1.26 |
| KLHL26 (peptide sequence: TWGHAGAASGGR, peptide start residue: 450) (UniProt Q53HC5) | 0.766 |
| UniProt Q58FG0 (peptide sequence: HIYYITGETK, peptide start residue: 490) | 0.134 |
| SAMD9 (peptide sequence: VELIEDKIDYTK, peptide start residue: 140) (UniProt Q5K651) | -0.776 |
| GLE1 (peptide sequence: KVQALSEMASEQLK, peptide start residue: 157) (UniProt Q53GS7) | -0.7 |
| TTC38 (peptide sequence: VLELLLPIR, peptide start residue: 394) (UniProt Q5R3I4) | -0.353 |
| UniProt Q5JNZ3 (peptide sequence: VHTGEKPYECEECGK, peptide start residue: 363) | 0.591 |
| UniProt Q5T011 (peptide sequence: DLMHVHSFSYDFHLR, peptide start residue: 3038) | 1.23 |
| SNAPC4 (peptide sequence: DSMQLIYR, peptide start residue: 383) (UniProt Q5SXM2) | 0.332 |
| ACSF3 (peptide sequence: EGHSLSHR, peptide start residue: 524) (UniProt Q4G176) | -0.211 |
| UniProt Q5MIZ7 (peptide sequence: AKESEDKENLPK, peptide start residue: 754) | 0.202 |
| MINDY4 (peptide sequence: TSLELITR, peptide start residue: 69) (UniProt Q4G0A6) | 0.263 |
| UniProt Q5M9Q1 (peptide sequence: ENQIYSADEKR, peptide start residue: 370) | -0.213 |
| UniProt Q562F6 (peptide sequence: TQEDKEPISENIEVSK, peptide start residue: 650) | -0.421 |
| UniProt Q5FWF5 (peptide sequence: NFSQCLESK, peptide start residue: 511) | 0.354 |
| CCDC152 (peptide sequence: LINDFSQIEKK, peptide start residue: 20) (UniProt Q4G0S7) | 0.0997 |
| UniProt Q5VYS8 (peptide sequence: NILPITTAKVPIVK, peptide start residue: 1046) | 0.626 |
| RILPL1 (peptide sequence: VTVVEAQGK, peptide start residue: 212) (UniProt Q5EBL4) | -0.203 |
| NOM1 (peptide sequence: LSEPNMASISGQLEELYMAHSRK, peptide start residue: 372) (UniProt Q5C9Z4) | 0.713 |
| HECTD3 (peptide sequence: LEGTDPEVLYRR, peptide start residue: 396) (UniProt Q5T447) | -0.31 |
| UniProt Q53H96 (peptide sequence: AATMSAVEAATCR, peptide start residue: 255) | 0.112 |
| UniProt Q5VUG0 (peptide sequence: LTDCAPLAK, peptide start residue: 835) | 0.0757 |
| PAN3 (peptide sequence: NPIGCLADRCK, peptide start residue: 255) (UniProt Q58A45) | -0.357 |
| SAMD4B (peptide sequence: MGLLSPSGIGGVSPR, peptide start residue: 588) (UniProt Q5PRF9) | -0.764 |

Random excerpt: two records from the list.

| Target | log2 fold change |
| --- | --- |
| UniProt Q5TEC6 (peptide sequence: STELLIRKLPFQR, peptide start residue: 58) | 1.26 |
| SNAPC4 (peptide sequence: DSMQLIYR, peptide start residue: 383) (UniProt Q5SXM2) | 0.332 |
